Test results taken from publication doi:10.1101/2024.01.10.574988.
Substitutions are numbered along the chain they refer to. Results are given in words; binding and its absence hold for the method and conditions named. In cells and extracts the contact can be indirect. Some results given as binding are weak or reduced against the parent protein; the word gives no strength. For some assays here: Sequences can lack the tags named with a protein.

By UniProt entry, the sequences of proteins in these tests, tags left out. Residues count along the entry.
UniProt Q07954, residues 20-4544: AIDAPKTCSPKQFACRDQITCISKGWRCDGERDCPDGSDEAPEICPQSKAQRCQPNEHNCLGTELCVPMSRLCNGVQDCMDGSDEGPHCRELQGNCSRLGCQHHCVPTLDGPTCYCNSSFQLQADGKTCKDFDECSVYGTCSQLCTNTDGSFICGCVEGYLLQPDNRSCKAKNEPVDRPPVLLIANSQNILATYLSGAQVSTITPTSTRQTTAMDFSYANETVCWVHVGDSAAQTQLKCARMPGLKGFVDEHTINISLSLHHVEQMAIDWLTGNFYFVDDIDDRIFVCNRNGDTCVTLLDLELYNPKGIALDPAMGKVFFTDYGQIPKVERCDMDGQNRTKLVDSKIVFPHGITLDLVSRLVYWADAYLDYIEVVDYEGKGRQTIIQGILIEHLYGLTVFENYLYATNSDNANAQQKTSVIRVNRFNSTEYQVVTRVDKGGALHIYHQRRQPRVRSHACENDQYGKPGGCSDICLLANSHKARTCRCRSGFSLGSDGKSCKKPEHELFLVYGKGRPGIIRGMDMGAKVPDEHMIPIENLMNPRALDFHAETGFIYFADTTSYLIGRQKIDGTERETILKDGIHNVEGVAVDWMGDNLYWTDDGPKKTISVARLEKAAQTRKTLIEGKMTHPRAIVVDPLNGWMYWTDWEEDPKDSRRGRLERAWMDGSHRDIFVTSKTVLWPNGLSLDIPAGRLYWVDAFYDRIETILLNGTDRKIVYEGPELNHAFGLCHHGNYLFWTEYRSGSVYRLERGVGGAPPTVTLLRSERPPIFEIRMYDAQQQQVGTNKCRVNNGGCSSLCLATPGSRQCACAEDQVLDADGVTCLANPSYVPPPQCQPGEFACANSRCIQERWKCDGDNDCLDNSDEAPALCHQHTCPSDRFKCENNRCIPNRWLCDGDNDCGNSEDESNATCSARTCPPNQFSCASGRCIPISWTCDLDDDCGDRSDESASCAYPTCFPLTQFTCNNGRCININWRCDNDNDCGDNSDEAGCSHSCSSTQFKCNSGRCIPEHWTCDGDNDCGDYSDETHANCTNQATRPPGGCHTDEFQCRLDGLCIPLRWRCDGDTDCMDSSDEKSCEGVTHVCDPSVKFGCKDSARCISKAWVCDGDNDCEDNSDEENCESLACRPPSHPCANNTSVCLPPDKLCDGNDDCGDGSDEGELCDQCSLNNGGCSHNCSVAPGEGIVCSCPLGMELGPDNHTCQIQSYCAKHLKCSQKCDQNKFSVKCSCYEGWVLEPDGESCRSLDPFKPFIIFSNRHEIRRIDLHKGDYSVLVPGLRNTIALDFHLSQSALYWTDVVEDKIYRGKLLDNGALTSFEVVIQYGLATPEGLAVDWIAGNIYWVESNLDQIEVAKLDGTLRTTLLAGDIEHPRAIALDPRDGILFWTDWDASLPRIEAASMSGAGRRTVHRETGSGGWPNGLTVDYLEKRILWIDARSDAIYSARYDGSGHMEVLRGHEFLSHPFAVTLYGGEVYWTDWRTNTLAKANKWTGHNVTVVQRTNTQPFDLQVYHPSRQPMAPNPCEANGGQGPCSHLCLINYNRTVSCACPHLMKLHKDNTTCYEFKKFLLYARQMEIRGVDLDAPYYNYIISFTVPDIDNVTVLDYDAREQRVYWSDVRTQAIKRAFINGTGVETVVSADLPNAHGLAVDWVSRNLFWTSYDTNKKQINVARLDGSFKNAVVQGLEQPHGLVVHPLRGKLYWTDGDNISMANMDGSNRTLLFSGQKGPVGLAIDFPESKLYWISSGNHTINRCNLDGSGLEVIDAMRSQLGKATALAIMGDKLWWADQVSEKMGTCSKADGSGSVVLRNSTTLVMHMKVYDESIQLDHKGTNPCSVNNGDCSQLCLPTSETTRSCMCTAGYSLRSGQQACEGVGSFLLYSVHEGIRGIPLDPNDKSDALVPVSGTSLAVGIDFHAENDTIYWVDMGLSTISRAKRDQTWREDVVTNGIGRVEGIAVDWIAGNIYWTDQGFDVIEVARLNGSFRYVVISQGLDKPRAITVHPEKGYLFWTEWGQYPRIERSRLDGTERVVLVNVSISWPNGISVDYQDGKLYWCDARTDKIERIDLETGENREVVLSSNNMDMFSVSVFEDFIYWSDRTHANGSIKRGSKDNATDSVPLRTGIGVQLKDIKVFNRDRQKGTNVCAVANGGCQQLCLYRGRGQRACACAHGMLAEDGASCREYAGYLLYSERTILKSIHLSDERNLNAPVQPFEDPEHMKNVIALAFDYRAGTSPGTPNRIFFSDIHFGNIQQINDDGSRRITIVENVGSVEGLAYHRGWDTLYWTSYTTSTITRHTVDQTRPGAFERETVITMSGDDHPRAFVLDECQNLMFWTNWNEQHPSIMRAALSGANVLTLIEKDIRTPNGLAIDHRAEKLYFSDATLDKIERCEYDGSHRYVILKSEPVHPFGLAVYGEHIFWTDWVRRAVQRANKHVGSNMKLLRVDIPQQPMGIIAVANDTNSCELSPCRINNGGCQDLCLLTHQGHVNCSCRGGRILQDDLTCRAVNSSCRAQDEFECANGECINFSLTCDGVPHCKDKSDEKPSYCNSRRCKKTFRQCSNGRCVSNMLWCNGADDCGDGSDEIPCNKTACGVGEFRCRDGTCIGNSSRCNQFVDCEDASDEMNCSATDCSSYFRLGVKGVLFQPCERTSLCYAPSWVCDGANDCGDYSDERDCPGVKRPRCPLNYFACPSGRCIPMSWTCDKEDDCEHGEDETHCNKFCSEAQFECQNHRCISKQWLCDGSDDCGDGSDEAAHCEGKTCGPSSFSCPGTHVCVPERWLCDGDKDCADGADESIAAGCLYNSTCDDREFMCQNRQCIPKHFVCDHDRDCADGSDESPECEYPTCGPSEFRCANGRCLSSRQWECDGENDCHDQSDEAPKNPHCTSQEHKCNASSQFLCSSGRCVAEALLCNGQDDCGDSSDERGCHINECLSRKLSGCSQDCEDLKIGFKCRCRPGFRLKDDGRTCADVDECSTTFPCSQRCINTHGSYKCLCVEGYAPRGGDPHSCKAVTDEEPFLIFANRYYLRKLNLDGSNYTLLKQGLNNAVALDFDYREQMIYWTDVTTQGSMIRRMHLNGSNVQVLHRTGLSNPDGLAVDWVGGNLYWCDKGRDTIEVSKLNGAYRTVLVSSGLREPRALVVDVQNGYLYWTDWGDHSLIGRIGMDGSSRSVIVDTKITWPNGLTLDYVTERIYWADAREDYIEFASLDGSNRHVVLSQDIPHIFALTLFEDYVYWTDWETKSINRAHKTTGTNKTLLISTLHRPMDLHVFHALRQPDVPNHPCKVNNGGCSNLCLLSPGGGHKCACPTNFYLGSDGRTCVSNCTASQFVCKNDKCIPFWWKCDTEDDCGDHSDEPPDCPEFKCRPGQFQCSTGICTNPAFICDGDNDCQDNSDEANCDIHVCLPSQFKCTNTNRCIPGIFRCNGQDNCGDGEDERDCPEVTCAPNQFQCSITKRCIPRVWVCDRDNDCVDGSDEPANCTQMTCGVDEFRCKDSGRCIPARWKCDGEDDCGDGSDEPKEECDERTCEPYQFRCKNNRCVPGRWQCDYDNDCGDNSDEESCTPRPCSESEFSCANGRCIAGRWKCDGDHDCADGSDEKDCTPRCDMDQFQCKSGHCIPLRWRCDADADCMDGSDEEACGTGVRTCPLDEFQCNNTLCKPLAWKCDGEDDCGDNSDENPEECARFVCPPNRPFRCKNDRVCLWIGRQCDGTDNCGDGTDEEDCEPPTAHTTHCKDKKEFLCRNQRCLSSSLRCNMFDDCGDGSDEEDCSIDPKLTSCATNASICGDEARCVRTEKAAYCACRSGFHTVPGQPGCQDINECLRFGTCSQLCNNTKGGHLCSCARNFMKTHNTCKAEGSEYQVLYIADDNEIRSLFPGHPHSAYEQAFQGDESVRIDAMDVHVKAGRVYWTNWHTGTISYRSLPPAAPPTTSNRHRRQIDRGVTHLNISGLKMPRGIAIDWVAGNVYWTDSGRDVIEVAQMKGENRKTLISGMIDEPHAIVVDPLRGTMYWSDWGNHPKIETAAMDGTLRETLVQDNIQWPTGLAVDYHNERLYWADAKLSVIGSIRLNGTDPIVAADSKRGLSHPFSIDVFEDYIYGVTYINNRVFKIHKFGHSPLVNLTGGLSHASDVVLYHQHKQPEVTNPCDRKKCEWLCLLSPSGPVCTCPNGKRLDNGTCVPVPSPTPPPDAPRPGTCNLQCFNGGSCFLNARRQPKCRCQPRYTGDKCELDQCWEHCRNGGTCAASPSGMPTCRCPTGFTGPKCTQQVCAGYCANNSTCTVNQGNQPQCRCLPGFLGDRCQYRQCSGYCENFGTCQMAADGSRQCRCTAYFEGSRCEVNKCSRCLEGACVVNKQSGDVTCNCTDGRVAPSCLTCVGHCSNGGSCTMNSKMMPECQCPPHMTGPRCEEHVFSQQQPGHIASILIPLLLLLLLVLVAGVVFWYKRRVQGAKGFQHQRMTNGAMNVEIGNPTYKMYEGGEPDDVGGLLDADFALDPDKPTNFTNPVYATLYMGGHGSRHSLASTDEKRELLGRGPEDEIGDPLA

Legend:
Test in all cases: co-IP
GFP-SNX17(M384E) (human) = molecular target: T1, GFP-SNX17(M384E) (human) (UniProt Q15036)
T1 sequence: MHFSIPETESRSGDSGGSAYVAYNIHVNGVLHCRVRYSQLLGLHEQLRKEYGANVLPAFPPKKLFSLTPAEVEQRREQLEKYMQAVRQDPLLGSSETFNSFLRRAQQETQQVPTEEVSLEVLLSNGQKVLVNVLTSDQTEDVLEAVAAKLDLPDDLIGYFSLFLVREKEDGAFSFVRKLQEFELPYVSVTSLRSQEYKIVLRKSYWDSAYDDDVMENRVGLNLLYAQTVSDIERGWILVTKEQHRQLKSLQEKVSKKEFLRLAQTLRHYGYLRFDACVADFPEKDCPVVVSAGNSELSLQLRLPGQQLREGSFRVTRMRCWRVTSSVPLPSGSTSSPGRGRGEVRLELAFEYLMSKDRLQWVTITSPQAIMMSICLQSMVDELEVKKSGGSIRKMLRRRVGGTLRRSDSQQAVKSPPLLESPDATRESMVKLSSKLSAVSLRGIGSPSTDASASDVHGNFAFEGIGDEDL

GFP-SNX17 (human) = molecular target: T2, GFP-SNX17 (human) (UniProt Q15036)
T2 sequence: T1 sequence with E384M

GFP-SNX17(F462A) (human) = molecular target: T3, GFP-SNX17(F462A) (human) (UniProt Q15036)
T3 sequence: T1 sequence with E384M, F462A

GFP-SNX17(F462E) (human) = molecular target: T4, GFP-SNX17(F462E) (human) (UniProt Q15036)
T4 sequence: T1 sequence with E384M, F462E

GFP-SNX17(W321A) (human) = molecular target: T5, GFP-SNX17(W321A) (human) (UniProt Q15036)
T5 sequence: T1 sequence with W321A, E384M

[1] = molecular target: T6, GFP-SNX17(NFAF-AAAA) (human) (UniProt Q15036)
T6 sequence: T1 sequence with E384M, N459A, F460A, F462A

GFP-SNX17(V380D) (human) = molecular target: T7, GFP-SNX17(V380D) (human) (UniProt Q15036)
T7 sequence: T1 sequence with V380D, E384M

VPS35L-GFP (human) = VPS35L-GFP (human) (UniProt Q7Z3J2)
[2] = molecular target: VPS35L(K283E)-GFP (human) (UniProt Q7Z3J2)
[3] = molecular target: VPS35L(W280A)-GFP (human) (UniProt Q7Z3J2)
[4] = molecular target: VPS35L(R248A)-GFP (human) (UniProt Q7Z3J2)

Measured: binding

LRP1 (lipoprotein receptor) in HEK293T lysate (from UniProt Q07954 20-4544)
not listed: VPS35L-GFP (human) | [2] | [3] | [4]
binds: all other assays above

VPS26C in HEK293T lysate (from UniProt O14972 1-297)
binds: VPS35L-GFP (human) | [2] | [3] | [4]
